Measured data: PubChem BioAssay AID652259 (Drosophila RNAi Screening Center, 2013)
In all, the deposit lists about 22,000 reagents; this is a random part of those with a known target gene and a result. Of all reagents, 233 (1.1%) were called active. 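Light values are raw, unnormalised plate reads; the ratio scores behind the reporter calls were not deposited.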 A number with no mark means an inactive call. Not stated in the record: the amount of reagent, the time to read-out, the dose of the treatment.

Purpose: 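Knock-downs that push a Wingless-driven reporter up or down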 (primary screen)
Cells: Drosophila clone 8 imaginal disc epithelial cells
Knock-down reagent: long dsRNA against Drosophila genes
Challenge: pathway stimulated by co-transfected Wingless expression plasmid
Detection: 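Dual luciferase reads per well after Wingless plasmid stimulation: reporter firefly light and Renilla control light; activity is firefly divided by Renilla, a ratio not deposited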
Scale: firefly reporter light: higher = more Wg reporter light, before normalisation; Renilla control light: higher = more transfected or surviving cells
Rule for the call: 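Strong candidates differ from their plate mean by at least two out of four per-plate statistical tests; weak candidates meet just one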
Meaning of the calls: active = candidate regulator (raises or lowers reporter); inactive = not a candidate

SMC5 [DRSC11849] gave firefly reporter light, replicate 1 = 6432; Renilla control light, replicate 1 = 3537.
Against CG6980 [DRSC16162], the values are firefly reporter light, replicate 1 = 3696; firefly reporter light, replicate 2 = 4922; Renilla control light, replicate 1 = 1544; Renilla control light, replicate 2 = 1954.
Silencing of UbcE2H [DRSC18221] resulted in: firefly reporter light, replicate 1 = 3303; firefly reporter light, replicate 2 = 7197; Renilla control light, replicate 1 = 1140; Renilla control light, replicate 2 = 1301.
Depletion of SH3PX1 [DRSC11139] resulted in: firefly reporter light, replicate 1 = 7824; Renilla control light, replicate 1 = 2891.
Knock-down of Cpr23B [DRSC00555] gave: firefly reporter light, replicate 1 = 3504; firefly reporter light, replicate 2 = 7732; Renilla control light, replicate 1 = 1144; Renilla control light, replicate 2 = 3016.
CG12229 [DRSC09868] gave firefly reporter light, replicate 1 = 5837; Renilla control light, replicate 1 = 2413.
With knock-down of CG42788 [DRSC15330], the screen gave firefly reporter light, replicate 1 = 16439; Renilla control light, replicate 1 = 4002.
With knock-down of CG42788 [DRSC16139] the results were firefly reporter light, replicate 1 = 17172; Renilla control light, replicate 1 = 3921.
For CG42788 [DRSC16152], the values are firefly reporter light, replicate 1 = 11538; Renilla control light, replicate 1 = 3430.
CG3588 [DRSC18473] scored firefly reporter light, replicate 1 = 16241; Renilla control light, replicate 1 = 13379.
After knock-down of CG10749 [DRSC09798] the results were firefly reporter light, replicate 1 = 3244; Renilla control light, replicate 1 = 1880.
rig [DRSC06053] gave firefly reporter light, replicate 1 = 11136; Renilla control light, replicate 1 = 3336.
Silencing of rig [DRSC06400] came out at: firefly reporter light, replicate 1 = 5192; Renilla control light, replicate 1 = 2221.
Against hth [DRSC16967], the values are firefly reporter light, replicate 1 = 15448; Renilla control light, replicate 1 = 2897.
tau [DRSC14569] gave firefly reporter light, replicate 1 = 14611; Renilla control light, replicate 1 = 2712.
After knock-down of Eph [DRSC17164], the screen gave firefly reporter light, replicate 1 = 20754; Renilla control light, replicate 1 = 14082.
After knock-down of rudhira [DRSC19821], the screen gave firefly reporter light, replicate 1 = 3207; firefly reporter light, replicate 2 = 7569; Renilla control light, replicate 1 = 451; Renilla control light, replicate 2 = 937.
rudhira [DRSC22111] showed firefly reporter light, replicate 1 = 8.16e5; firefly reporter light, replicate 2 = 8.03e5; Renilla control light, replicate 1 = 3.44e5; Renilla control light, replicate 2 = 3.54e5.
Against Snmp2 [DRSC10228], the values are firefly reporter light, replicate 1 = 2728; firefly reporter light, replicate 2 = 7866; Renilla control light, replicate 1 = 1897; Renilla control light, replicate 2 = 3889.
Depletion of Snmp2 [DRSC10843] gave: firefly reporter light, replicate 1 = 1408; firefly reporter light, replicate 2 = 5594; Renilla control light, replicate 1 = 1335; Renilla control light, replicate 2 = 2100.
CG30271 [DRSC04170] showed firefly reporter light, replicate 1 = 3832; firefly reporter light, replicate 2 = 9857; Renilla control light, replicate 1 = 585; Renilla control light, replicate 2 = 3235.
Silencing of gudu [DRSC02820] came out at: firefly reporter light, replicate 1 = 2981; firefly reporter light, replicate 2 = 7539; Renilla control light, replicate 1 = 842; Renilla control light, replicate 2 = 3008.
rgr [DRSC06487] scored firefly reporter light, replicate 1 = 18306; Renilla control light, replicate 1 = 5488.
Knock-down of rgr [DRSC07229] resulted in: firefly reporter light, replicate 1 = 10348; Renilla control light, replicate 1 = 3088.
With knock-down of Cyp40 [DRSC10980], the record shows firefly reporter light, replicate 1 = 3683; Renilla control light, replicate 1 = 1920.
Silencing of CG4676 [DRSC06879] gave: firefly reporter light, replicate 1 = 6600; Renilla control light, replicate 1 = 3429.
With knock-down of MTF-1 [DRSC08983], the record shows firefly reporter light, replicate 1 = 2582; Renilla control light, replicate 1 = 487.
Against MTF-1 [DRSC11217] the deposit lists firefly reporter light, replicate 1 = 8265; Renilla control light, replicate 1 = 3377.
For MTF-1 [DRSC21341], the values are firefly reporter light, replicate 1 = 3.44e5; firefly reporter light, replicate 2 = 3.55e5; Renilla control light, replicate 1 = 1.70e5; Renilla control light, replicate 2 = 1.65e5.
With knock-down of CG7631 [DRSC01873] the results were firefly reporter light, replicate 1 = 2609; firefly reporter light, replicate 2 = 5720; Renilla control light, replicate 1 = 1147; Renilla control light, replicate 2 = 2214.
Depletion of mRpL19 [DRSC16367] gave: firefly reporter light, replicate 1 = 19019; Renilla control light, replicate 1 = 6173.
With knock-down of mRpL19 [DRSC21618], the record shows firefly reporter light, replicate 1 = 6.61e5; firefly reporter light, replicate 2 = 7.14e5; Renilla control light, replicate 1 = 4.90e5; Renilla control light, replicate 2 = 3.47e5.

Records listed so far whose target name begins with M or m:
MTF-1 [DRSC08983]: firefly reporter light, replicate 1 = 2582; Renilla control light, replicate 1 = 487
MTF-1 [DRSC11217]: firefly reporter light, replicate 1 = 8265; Renilla control light, replicate 1 = 3377
MTF-1 [DRSC21341]: firefly reporter light, replicate 1 = 3.44e5; firefly reporter light, replicate 2 = 3.55e5; Renilla control light, replicate 1 = 1.70e5; Renilla control light, replicate 2 = 1.65e5
mRpL19 [DRSC16367]: firefly reporter light, replicate 1 = 19019; Renilla control light, replicate 1 = 6173
mRpL19 [DRSC21618]: firefly reporter light, replicate 1 = 6.61e5; firefly reporter light, replicate 2 = 7.14e5; Renilla control light, replicate 1 = 4.90e5; Renilla control light, replicate 2 = 3.47e5
